Record: PubChem BioAssay AID1224826 (NIAID, 2016)
The deposit covers about 17,000 reagents; this is an unselected part. Of all reagents, about 1,110 (6.6%) are marked active. 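Active means lowered or raised reporter signal; replicate intensities are raw and not normalised per plate.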 Entries without a mark were called inactive. Further read-outs or replicates are left out here. No sequences are given here.

Test: 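Genes that change LPS-induced Tnf promoter activity in mouse macrophages when knocked down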 (primary screen)
Cells: RAW264.7 G9 macrophages from mouse bearing reporters for p65 (GFP) and the Tnf promoter (mCherry)
Reagent: siRNA pool against mouse genes, 100 nM
Timing: 16 h of LPS stimulation, after 2 days of siRNA transfection
Treatment: bacterial lipopolysaccharide (Salmonella minnesota R595), 10 ng/ml
Measured: 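Imaged Tnf reporter mCherry in nuclei, minus background, normalised per plate to the median and expressed as robust z-scores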
Reading the numbers: Tnf reporter robust z-score: higher = stronger Tnf promoter reporter signal after LPS
Active means: 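a well counts as active at a score of -1.3 or below (Tlr4 knock-down control median) or above 3 (raised signal); controls and wells holding fewer than 50 cells are excluded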
Meaning of the calls: active = Tnf reporter clearly lowered or raised; inactive = no clear change in Tnf reporter

gene | Tnf reporter robust z-score | fewer than 50 cells in well
Pcdhb14 (GeneID 93885) | 1.72 | enough cells in well
Sftpd (GeneID 20390) | -0.15 | enough cells in well
Anapc11 (GeneID 66156) | 0.52 | enough cells in well
Tmem88 (GeneID 67020) | – | fewer than 50 cells per well; well left out of calls
Ehd4 (GeneID 98878) | -0.59 | enough cells in well
Foxi1 (GeneID 14233) | 1.13 | enough cells in well
Rbfox1 (GeneID 268859) | 0.86 | enough cells in well
Trmt2b (GeneID 215201) | – | fewer than 50 cells per well; well left out of calls
Cert1 (GeneID 68018) | 1.69 | enough cells in well
Colec10 (GeneID 239447) | 0.61 | enough cells in well
Tuba4a (GeneID 22145) | 0.74 | enough cells in well
Fxyd3 (GeneID 17178) | -0.68 | enough cells in well
Krtap4-7 (GeneID 76444) | 2.85 | enough cells in well
Or10ag56 (GeneID 404328) | 0.84 | enough cells in well
Tyk2 (GeneID 54721) | 1.31 | enough cells in well
9330169L03Rik (GeneID 77226) | -0.48 | enough cells in well
Bcl2l11 (GeneID 12125) | 0.51 | enough cells in well
Capza1 (GeneID 12340) | 0.51 | enough cells in well
Magea1 (GeneID 17137) | -0.79 | enough cells in well
Or8k3 (GeneID 259014) | 1.09 | enough cells in well
Chrnb2 (GeneID 11444) | -0.64 | enough cells in well
Nudcd3 (GeneID 209586) | 1.22 | enough cells in well
Dtymk (GeneID 21915) | -0.39 | enough cells in well
Ppard (GeneID 19015) | 0.24 | enough cells in well
Or6c201 (GeneID 258862) | – | fewer than 50 cells per well; well left out of calls
Traf5 (GeneID 22033) | -0.16 | enough cells in well
Spdye4a (GeneID 74673) | – | fewer than 50 cells per well; well left out of calls
Zfp157 (GeneID 72154) | 3.35 (active) | enough cells in well
Tsc22d4 (GeneID 78829) | – | fewer than 50 cells per well; well left out of calls
Magel2 (GeneID 27385) | -0.76 | enough cells in well
Cxcl3 (GeneID 330122) | 1.71 | enough cells in well
Disp1 (GeneID 68897) | -0.86 | enough cells in well
Abl2 (GeneID 11352) | 0.66 | enough cells in well
Or4c29 (GeneID 258453) | -2.25 (active) | enough cells in well
Btg1 (GeneID 12226) | 2.17 | enough cells in well
Gnl3 (GeneID 30877) | 1.64 | enough cells in well
Akap9 (GeneID 100986) | -0.13 | enough cells in well
Tmem168 (GeneID 101118) | -0.02 | enough cells in well
Sort1 (GeneID 20661) | 0.52 | enough cells in well
Parg (GeneID 26430) | -0.19 | enough cells in well
Ppfibp2 (GeneID 19024) | -0.36 | enough cells in well
Csf3 (GeneID 12985) | 0.37 | enough cells in well
Slc35f3 (GeneID 210027) | – | fewer than 50 cells per well; well left out of calls
Osbpl9 (GeneID 100273) | 1.31 | enough cells in well
Dcun1d4 (GeneID 100737) | 0.3 | enough cells in well
A830031A19Rik (GeneID 268391) | 0.69 | enough cells in well
Apof (GeneID 103161) | 0.81 | enough cells in well
Pcdhga5 (GeneID 93713) | 1.1 | enough cells in well
Fkbp10 (GeneID 14230) | 1.03 | enough cells in well
Isoc2b (GeneID 67441) | – | fewer than 50 cells per well; well left out of calls
Myo6 (GeneID 17920) | 0.59 | enough cells in well
Or13a1 (GeneID 258914) | -0.4 | enough cells in well
Styxl1 (GeneID 76571) | 1.25 | enough cells in well
Notch3 (GeneID 18131) | 0.05 | enough cells in well
Or6b6 (GeneID 259037) | -0.4 | enough cells in well
Xylt1 (GeneID 233781) | 3.51 (active) | enough cells in well
Ctf1 (GeneID 13019) | -1.4 (active) | enough cells in well
Htr4 (GeneID 15562) | -0.4 | enough cells in well

A run of entries taken from the entries so far, for reference:
gene | Tnf reporter robust z-score | fewer than 50 cells in well
Ppfibp2 (GeneID 19024) | -0.36 | enough cells in well
Csf3 (GeneID 12985) | 0.37 | enough cells in well
Slc35f3 (GeneID 210027) | – | fewer than 50 cells per well; well left out of calls
